Assay results taken from PMC7772359.
Results are given in words; binding and its absence hold for the method and conditions named. Binding seen in cells or lysates may run through a third protein. Some results given as binding are weak or reduced against the parent protein; the word gives no strength.

By UniProt entry, the sequences of proteins in these tests, tags left out.
UniProt Q61221: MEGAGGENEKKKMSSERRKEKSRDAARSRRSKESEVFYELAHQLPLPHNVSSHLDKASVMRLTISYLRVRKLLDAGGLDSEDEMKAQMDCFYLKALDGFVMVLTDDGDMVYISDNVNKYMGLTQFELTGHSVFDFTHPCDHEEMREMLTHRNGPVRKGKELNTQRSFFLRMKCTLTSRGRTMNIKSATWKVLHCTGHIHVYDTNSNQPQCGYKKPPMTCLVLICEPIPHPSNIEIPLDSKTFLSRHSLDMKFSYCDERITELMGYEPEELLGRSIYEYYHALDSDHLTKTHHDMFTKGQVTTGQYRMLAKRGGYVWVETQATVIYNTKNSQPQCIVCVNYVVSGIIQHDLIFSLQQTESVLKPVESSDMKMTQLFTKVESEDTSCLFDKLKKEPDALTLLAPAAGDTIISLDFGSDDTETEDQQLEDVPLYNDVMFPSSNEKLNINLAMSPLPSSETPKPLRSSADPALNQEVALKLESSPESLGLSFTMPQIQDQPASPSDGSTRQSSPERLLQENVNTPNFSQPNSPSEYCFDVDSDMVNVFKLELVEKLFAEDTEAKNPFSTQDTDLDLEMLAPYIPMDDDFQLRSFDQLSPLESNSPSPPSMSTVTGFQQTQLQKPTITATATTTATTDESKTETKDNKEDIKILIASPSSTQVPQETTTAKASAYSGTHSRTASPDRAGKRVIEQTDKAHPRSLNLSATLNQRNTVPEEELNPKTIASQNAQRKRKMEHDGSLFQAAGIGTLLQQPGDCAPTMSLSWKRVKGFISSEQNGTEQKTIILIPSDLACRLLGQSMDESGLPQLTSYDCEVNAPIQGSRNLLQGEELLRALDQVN
UniProt Q6P5H2: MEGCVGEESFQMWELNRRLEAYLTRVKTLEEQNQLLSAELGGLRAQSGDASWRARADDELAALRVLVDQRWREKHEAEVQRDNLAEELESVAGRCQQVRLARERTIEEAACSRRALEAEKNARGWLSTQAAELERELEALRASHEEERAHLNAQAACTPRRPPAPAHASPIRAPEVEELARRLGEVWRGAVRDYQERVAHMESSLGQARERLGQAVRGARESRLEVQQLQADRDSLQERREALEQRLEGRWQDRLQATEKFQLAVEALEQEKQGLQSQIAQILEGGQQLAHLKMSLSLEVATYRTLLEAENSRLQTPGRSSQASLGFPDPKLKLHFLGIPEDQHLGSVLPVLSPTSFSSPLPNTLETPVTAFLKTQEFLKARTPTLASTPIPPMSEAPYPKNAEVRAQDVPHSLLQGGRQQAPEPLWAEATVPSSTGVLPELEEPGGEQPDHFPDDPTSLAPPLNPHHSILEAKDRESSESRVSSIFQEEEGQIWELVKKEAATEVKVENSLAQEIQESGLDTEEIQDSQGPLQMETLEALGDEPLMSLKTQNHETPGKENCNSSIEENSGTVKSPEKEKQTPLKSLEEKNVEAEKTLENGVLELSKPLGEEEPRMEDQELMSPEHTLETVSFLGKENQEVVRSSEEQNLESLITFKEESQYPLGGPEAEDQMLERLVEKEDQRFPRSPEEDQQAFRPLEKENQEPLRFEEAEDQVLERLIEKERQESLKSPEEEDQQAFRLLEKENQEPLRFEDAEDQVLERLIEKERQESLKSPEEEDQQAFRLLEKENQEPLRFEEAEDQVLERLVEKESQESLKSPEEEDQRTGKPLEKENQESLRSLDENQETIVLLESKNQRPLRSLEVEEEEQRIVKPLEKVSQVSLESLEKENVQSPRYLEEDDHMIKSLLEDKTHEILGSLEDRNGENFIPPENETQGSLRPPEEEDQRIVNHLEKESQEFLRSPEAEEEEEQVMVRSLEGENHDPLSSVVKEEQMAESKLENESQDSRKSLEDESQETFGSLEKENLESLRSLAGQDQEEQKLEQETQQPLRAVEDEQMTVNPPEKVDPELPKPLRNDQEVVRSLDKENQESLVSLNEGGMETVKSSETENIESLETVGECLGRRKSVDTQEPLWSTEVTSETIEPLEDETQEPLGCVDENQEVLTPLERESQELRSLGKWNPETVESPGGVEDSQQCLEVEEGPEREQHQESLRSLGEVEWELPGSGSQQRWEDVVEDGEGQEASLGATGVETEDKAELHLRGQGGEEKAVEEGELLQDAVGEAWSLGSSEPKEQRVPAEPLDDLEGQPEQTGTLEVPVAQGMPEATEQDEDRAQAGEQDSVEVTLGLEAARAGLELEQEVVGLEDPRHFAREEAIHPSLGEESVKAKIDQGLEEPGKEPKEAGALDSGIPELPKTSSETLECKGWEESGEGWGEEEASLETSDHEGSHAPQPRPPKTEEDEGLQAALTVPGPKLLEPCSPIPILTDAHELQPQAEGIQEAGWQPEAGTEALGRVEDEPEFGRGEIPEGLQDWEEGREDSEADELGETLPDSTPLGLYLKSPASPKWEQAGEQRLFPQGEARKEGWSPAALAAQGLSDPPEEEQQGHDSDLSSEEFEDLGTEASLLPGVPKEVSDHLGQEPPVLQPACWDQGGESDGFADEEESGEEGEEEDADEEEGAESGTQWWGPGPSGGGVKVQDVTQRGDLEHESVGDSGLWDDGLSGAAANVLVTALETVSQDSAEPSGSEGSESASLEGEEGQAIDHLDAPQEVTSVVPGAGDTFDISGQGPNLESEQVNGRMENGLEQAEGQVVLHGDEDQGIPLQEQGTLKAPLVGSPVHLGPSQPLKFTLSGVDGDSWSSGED

Molecular target: HIF1-α (mouse (endogenous in Nes+ cells of Nestin-GFP mice)) (UniProt Q61221)
Assay: co-IP; reciprocal: endogenous proteins from Nes+ cell lysates precipitated with anti-HIF1-α antibody; Pierce IP lysis buffer with protease inhibitors, overnight at 4°C, Dynabeads Protein G 1 h, immunoblot

## Nestin (from UniProt Q6P5H2 1-1864)
  binding: binds
